# Reference: paper PMC6953191, “OsNAC2 integrates auxin and cytokinin pathways to modulate rice root development”
# B1: OsNAC2 (pGADT7-OsNAC2, prey) (protein, UniProt Q7XUV6 1-343)
# chain: MEQHQGQAGMDLPPGFRFHPTDEELITHYLAKKVADARFAALAVAEADLNKCEPWDLPSLAKMGEKEWYFFCLKDRKYPTGLRTNRATESGYWKATGKDKDIFRRKALVGMKKTLVFYTGRAPKGEKSGWVMHEYRLHGKLHAAALGFLHGKPASSKNEWVLCRVFKKSLVEVGAAGGKKAAVVTMEMARGGSTSSSVADEIAMSSVVLPPLMDMSGAGAGAVDPATTAHVTCFSNALEGQFFNPTAVHGHGGGDSSPFMASFTQYGQLHHGVSLVQLLESCNGYGGLVDMAASGSQLQPAACGGERERLSASQDTGLTSDVNPEISSSSGQKFDHEAALWGY
# How the values were obtained:
# [1] = target: OsRR6 (pGBKT7-OsRR, bait) (rice (Oryza sativa)); assay: two-hybrid; OsRRs as bait (pGBKT7), OsNAC2 as prey (pGADT7); yeast strain AH109; SD/-His/-Trp/-Leu/-Ade plate
# [2] = target: OsRR4 (pGBKT7-OsRR, bait) (rice (Oryza sativa)); assay: as above
binder,measurement,setting,value
B1,binding,[1],no binding
same,binding,[2],no binding

# These are yes or no findings as the source states them, for the method shown.
